Among all 360,000 compounds or so, about 7,500 (2.1%) were called active. Inconclusive results, whose numbers are uncertain, are shown with a selection of clear calls. Calls follow the shape of the dose curve; as a rule, active = well fitted inhibition curve with a large enough effect; inconclusive = small, poorly fitted or top-dose-only effect, or effect the other way; inactive = flat fitted curve, though single readings scatter. Where the call is inconclusive, the potency comes from a doubtful curve fit.
Test: Nrf2 qHTS screen for inhibitors; also: nearly all actives have a fitted effect of over 60% in size
Details: A549 ARE-Fluc reporter, luciferase luminescence, 18-24 h; activity change, negative = inhibition: at 46 µM (top of the series)
Outline: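 In this cell-based qHTS, ARE-driven firefly luciferase in A549 cells reports Nrf2 activity; the luminescent signal after BugLite lysis is the measured value, with a prior CellTiter-Fluor read for cell health.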
% is scaled to controls: 0 for no effect and ±100 for the full control effect; potency is read from the fitted curve at half-maximal effect.

| Compound | Potency | activity change, negative = inhibition |
| --- | --- | --- |
| O=[N+]([O-])c1ccc(S(=O)(=O)CC2CSc3nc4ccccc4n32)cc1 (centres undefined) | active: 5.17 µM |  |
| Cc1ccnc2nc(NC(=O)c3ccccc3Cl)nn12 | inconclusive: 6.51 µM [activator, partial curve, poor fit] |  |
| O=C(COc1ccc(C(=O)NCc2cccnc2)cc1)Nc1cccc(C(F)(F)F)c1 | inconclusive: 29.1 µM [falling, single point] |  |
| CC(NC(=O)COC(=O)CCc1ccccc1)c1ccccc1 (centres undefined) | inconclusive: 29.1 µM [falling, single point] |  |
| N#Cc1ccc(/C=C(\C(=O)C(=O)O)c2ccc3ccccc3n2)cc1 | inconclusive: 32.6 µM [activator, single point] |  |
| Cc1ccccc1Nc1nc(N)nc(COC(=O)c2ccco2)n1 | inconclusive: 7.31 µM [activator, partial curve] |  |
| CS(=O)(=O)c1ccc2nc(NC(=O)C3CCCO3)sc2c1 (centres undefined) | inconclusive: 20.6 µM [activator, single point] |  |
| COc1cccc2c1OC1(C)CC2NC(=O)N1Cc1ccccc1 (centres undefined) | inconclusive: 4.61 µM [activator, full curve, poor fit] |  |
| N#Cc1ccc(C(=O)Nc2cccc3ccccc23)c(F)c1 | inconclusive: 0.0058 µM [falling, full curve, poor fit] |  |
| CCOC(=O)c1cc2nc(-c3ccco3)cc(C(F)(F)F)n2n1 | inactive |  |
| CCN1C(=O)/C(=C/C=C2/CCCN2C)OC1=S | inconclusive: 3.26 µM [activator, partial curve, poor fit] |  |
| CCOC(=O)c1ccccc1NC(=O)C1CCCO1 (centres undefined) | inconclusive: 6.51 µM [falling, single point] |  |
| O=S(=O)(NCC(c1ccco1)N1CCc2ccccc2C1)c1ccc(Br)cc1 (centres undefined) | inconclusive: 29.1 µM [falling, single point] |  |
| Cc1cc(/C=N/NC(=O)c2cccnc2)c(C)n1CC(C)C | inconclusive: 2.59 µM [activator, full curve] |  |
| COc1ccc(Nc2c3c(nc4ccc(NC(=O)c5cc(Cl)ccc5OC)cc24)CCCC3)cc1OC |  | inactive: -11% [at 9.27 µM] |
| O=C(Nc1nc(-c2ccco2)c(-c2ccco2)s1)C1CC(=O)N(c2ccc3c(c2)OCCO3)C1 (centres undefined) | inconclusive: 20.6 µM [falling, single point] |  |
| COc1c(C(=O)Nc2nnc(C3CC3)s2)csc1Cl | inconclusive: 10.3 µM [activator, partial curve, poor fit] |  |
| CCc1cccc2c(C(=O)CN3C(=O)NC(C)(c4cccc5ccccc45)C3=O)c[nH]c12 (centres undefined) | inconclusive: 29.1 µM [falling, single point] |  |
| Nc1nc2ccccc2n1/N=C/c1cccnc1 | inconclusive: 7.31 µM [activator, partial curve] |  |
| CSc1nc(N)nc2c1ncn2CC(=O)NCCCc1ccccc1 | inconclusive: 11.6 µM [falling, partial curve, poor fit] |  |
| O=c1c2ccccc2sn1-c1ccc(S(=O)(=O)N2CCOCC2)cc1 | inconclusive: 29.1 µM [activator, single point] |  |
| O=C(CN(c1ccc2c(c1)OCCO2)S(=O)(=O)c1ccccc1)N1CCN(Cc2ccccc2)CC1 | inactive |  |

Taken from above:
N#Cc1ccc(C(=O)Nc2cccc3ccccc23)c(F)c1 | Potency: inconclusive: 0.0058 µM [falling, full curve, poor fit]
N#Cc1ccc(/C=C(\C(=O)C(=O)O)c2ccc3ccccc3n2)cc1 | Potency: inconclusive: 32.6 µM [activator, single point]

(further entries)

| Compound | Potency | activity change, negative = inhibition |
| --- | --- | --- |
| COc1cccc(N2CCN(CC(=O)NC(C)c3ccccc3)CC2)c1 (centres undefined) | inconclusive: 0.058 µM [falling, full curve, poor fit] |  |
| Cc1noc2ncnc(NCc3ccc(Cl)cc3)c12 | inconclusive: 20.6 µM [falling, single point] |  |
| CCCCN1C(=O)NC(NC(=O)C2CC2)(C(F)(F)F)C1=O (centres undefined) | inconclusive: 1.84 µM [falling, partial curve, poor fit] |  |
| Cc1nc(NC(C)C)c2oc3ccccc3c2n1 | inconclusive: 23.1 µM [falling, single point] |  |
| C[C@H](NC(=O)c1[nH]cnc1C(=O)Nc1ccccc1)c1ccccc1 | inactive |  |
| Cc1ccc(-c2cc(NC(=O)C(C)Oc3ccccc3F)on2)cc1 (centres undefined) | inactive |  |
| C=CC[C@@H](Cc1ccc(F)cc1)C(=O)OC[C@H]1CCCN1C(=O)[C@@H](CC=C)CC(=O)N(CCO)Cc1ccccc1 | inconclusive: 25.9 µM [falling, single point] |  |
| O=C(N/N=C/c1ccc(O)c(O)c1)c1cccc(S(=O)(=O)N2CCCC2)c1 | inconclusive: 20.6 µM [activator, partial curve] |  |
| COc1cc(/C=C2\SC(N)=NC2=O)ccc1OCC(=O)Nc1ccccc1C | inconclusive: 6.51 µM [falling, single point] |  |
| CCCCCN(C(=O)CCC(=O)OCc1ccc(C(C)C)cc1)c1c(N)n(CCCC)c(=O)[nH]c1=O | inconclusive: 29.1 µM [falling, single point] |  |
| Cc1ccc(C(=O)/C=C/Nc2cccc(O)c2)cc1 | inconclusive: 25.9 µM [falling, single point] |  |
| O=S(=O)(c1cccc(F)c1)N1CCN(S(=O)(=O)c2ccc3c(c2)OCCO3)CC1 | inactive |  |
| CC(C)OP(=O)(c1ccc(N(C)C)cc1)C(O)c1ccc(Br)cc1 (centres undefined) | inactive |  |
| COc1ccc(NC(=O)CCCn2c(=O)c3sccc3n(Cc3ccccc3C)c2=O)cc1 | inactive |  |
| COc1ccc(CCNc2ccncn2)cc1OC | inconclusive: 18.4 µM [falling, single point] |  |
| C[C@H](CO)N1C[C@H](C)[C@@H](CN(C)Cc2ccc(Cl)c(Cl)c2)Oc2c(NC(=O)Cc3ccccc3)cccc2C1=O | inconclusive: 29.1 µM [falling, single point] |  |
| CCOC(=O)c1sc2nc(C)nc(Nc3ccc(OC)cc3)c2c1C | inconclusive: 6.51 µM [falling, single point] |  |
| Cc1nnc(N2CCN(c3cccc(C(F)(F)F)c3)CC2)c2c1nnn2Cc1ccccc1 | inconclusive: 23.1 µM [falling, partial curve, poor fit] |  |
| O=C(N/N=C/c1ccco1)c1cc(-c2ccc3ccccc3c2)n[nH]1 | inconclusive: 29.1 µM [falling, single point] |  |
| O=C(CNC(=O)c1ccc2c(c1)OCO2)N/N=C/c1cc(Br)ccc1O | inconclusive: 3.26 µM [falling, partial curve, poor fit] |  |
| Clc1ccsc1-c1ccc2ccccc2n1 | inconclusive: 10 µM [activator, partial curve] |  |
| O=C(Nc1ccc2nc(N3CCOCC3)sc2c1)c1ccccc1 | inactive |  |

| Compound | Potency | activity change, negative = inhibition |
| --- | --- | --- |
| CCC(C)(C)C1CCc2[nH]nc(C(=O)NC(C)C)c2C1 (centres undefined) | inconclusive: 20.6 µM [falling, partial curve] |  |
| CC(=O)c1ccc(-c2ccc(C(=O)N3CCN(c4ccc(F)cc4)CC3)o2)cc1 | inconclusive: 23.1 µM [falling, single point] |  |
| NC(=O)c1cc2ccccc2o/c1=N\NC(=O)c1ccc(F)cc1 | inconclusive: 18.4 µM [falling, single point] |  |
| CCOC(=O)c1c(S(=O)(=O)N2CCN(c3cccc(C(F)(F)F)c3)CC2)c(C)n(C)c1C | inconclusive: 4.11 µM [activator, full curve, poor fit] |  |
| CC(=O)c1ccc(NC(=O)c2noc3c2CCCCC3)cc1 | inconclusive: 1.46 µM [activator, full curve] |  |
| CC(C)n1c(C(=O)OCC(=O)NCc2ccc3c(c2)OCO3)cc2sccc21 | inconclusive: 25.9 µM [falling, single point] |  |
| CCCn1cc(S(=O)(=O)c2ccc(CC)cc2)c(=O)c2cc(F)c(N3CCN(C)CC3)cc21 | inconclusive: 25.9 µM [activator, single point] |  |
| Cc1sc(-c2ccccn2)nc1OC(=O)c1cccc(Cl)c1Cl | inconclusive: 7.31 µM [falling, full curve, poor fit] |  |
| Cc1ccc(C(=O)O/N=C(\c2ccccc2)c2ccncc2)cc1 | inconclusive: 4.61 µM [activator, single point] |  |
| C=CCNc1nc(-c2ccc(OC)cc2OC)cs1 | inconclusive: 18.4 µM [activator, single point] |  |
| CC1CCN(C(=O)CSc2nc3ccccc3s2)CC1 | inconclusive: 7.31 µM [activator, partial curve] |  |
| Cc1cc(/C=C2/C(=O)NN(c3ccccc3)C2=O)c(C)n1-c1ccc(O)cc1 | inconclusive: 20.6 µM [falling, partial curve, poor fit] |  |
| Cc1ccc(SC[C@H](C)CN2CC[C@H](C(C)(C)C)CCC2=O)cc1 | inactive |  |
| O=C1CC(c2ccc(Cl)cc2)n2nc(NS(=O)(=O)c3ccc(F)cc3)nc2N1 (centres undefined) | inconclusive: 2.31 µM [falling, partial curve, poor fit] |  |
| CC(C)c1ccc2oc(-c3ccc(Cl)c(NC(=O)Cc4ccccc4)c3)nc2c1 | inconclusive: 5.17 µM [activator, full curve] |  |
| CN1/C(=C\C(=O)CN2C(=O)NC3(CCCCCC3)C2=O)C(C)(C)c2ccccc21 | inconclusive: 9.2 µM [falling, partial curve] |  |
| O=C(N/N=C/c1ccc2c(c1)OCO2)c1ccn(Cc2ccc(Cl)cc2)n1 | inactive |  |
| Cc1ccccc1NC(=O)/C(C#N)=C/c1ccc(-c2ccc(Cl)c(C(=O)O)c2)o1 | inconclusive: 16.4 µM [activator, partial curve, poor fit] |  |
| CON/C=C(\C=Nc1ccc(Cl)cc1Cl)c1ncc(C(F)(F)F)cc1Cl | inconclusive: 0.0651 µM [activator, full curve, poor fit] |  |
| CCC1CCc2c(sc(NC(=O)C3c4ccccc4Oc4ccccc43)c2C(=O)OC)C1 (centres undefined) | inactive |  |

Part of the list above, as tab-separated lines.
Compound	Potency	activity change, negative = inhibition
CSc1nc(N)nc2c1ncn2CC(=O)NCCCc1ccccc1	inconclusive: 11.6 µM [falling, partial curve, poor fit]	
O=c1c2ccccc2sn1-c1ccc(S(=O)(=O)N2CCOCC2)cc1	inconclusive: 29.1 µM [activator, single point]	

Source: PubChem BioAssay AID504444 (National Center for Advancing Translational Sciences (NCATS), 2011)
